The target in this experiment is endogenous Gal-1 (BHK21 cells) (hamster (endogenous in BHK21)) (UniProt P48538). Briefly: proximity ligation; in situ PLA (Duolink II) on endogenous proteins in BHK21 cells, serum starved 5 h, 100 ng/ml EGF for 10 min, fixed with methanol; Gal-1 siRNA as negative control.

Protein sequences, listed by entry. Tags and fused reporters are not part of them.
UniProt P48538: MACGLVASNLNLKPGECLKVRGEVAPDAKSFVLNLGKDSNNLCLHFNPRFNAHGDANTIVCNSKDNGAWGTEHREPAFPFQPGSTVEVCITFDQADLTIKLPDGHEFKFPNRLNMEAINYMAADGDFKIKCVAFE
UniProt A0A9J7F3R3: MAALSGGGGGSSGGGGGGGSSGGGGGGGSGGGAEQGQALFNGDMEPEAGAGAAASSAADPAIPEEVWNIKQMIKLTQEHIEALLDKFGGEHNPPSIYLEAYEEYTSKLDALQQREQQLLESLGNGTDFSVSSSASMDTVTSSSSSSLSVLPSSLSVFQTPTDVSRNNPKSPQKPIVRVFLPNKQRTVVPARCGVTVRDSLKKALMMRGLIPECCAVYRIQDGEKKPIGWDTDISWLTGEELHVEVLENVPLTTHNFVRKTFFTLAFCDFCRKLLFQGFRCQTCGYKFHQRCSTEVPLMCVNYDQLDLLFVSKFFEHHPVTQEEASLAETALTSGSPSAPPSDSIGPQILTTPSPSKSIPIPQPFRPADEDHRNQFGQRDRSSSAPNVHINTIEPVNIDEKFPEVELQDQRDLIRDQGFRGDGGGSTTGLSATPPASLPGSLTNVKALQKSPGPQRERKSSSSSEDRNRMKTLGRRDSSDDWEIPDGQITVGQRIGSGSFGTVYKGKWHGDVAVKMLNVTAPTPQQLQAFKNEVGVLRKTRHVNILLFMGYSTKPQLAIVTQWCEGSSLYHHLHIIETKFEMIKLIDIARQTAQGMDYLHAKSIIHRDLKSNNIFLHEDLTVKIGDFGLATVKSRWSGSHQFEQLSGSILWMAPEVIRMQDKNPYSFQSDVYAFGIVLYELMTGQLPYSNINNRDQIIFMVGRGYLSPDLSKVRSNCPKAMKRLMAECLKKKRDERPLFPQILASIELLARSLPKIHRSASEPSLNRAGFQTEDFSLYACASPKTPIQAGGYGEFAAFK

These are yes or no findings as the source states them, for the method shown. Binding seen in cells or lysates may run through a third protein. Some entries that bind do so weakly or less than the wild type.

With “endogenous B-Raf (BHK21 cells) (from UniProt A0A9J7F3R3 1-798)”, the binding entry is on record as “binds”.
Next, “endogenous C-Raf (BHK21 cells) (from UniProt G3HVN3 1-648)”: “binds”.

Values taken from article PMC4834570.
